{
  "sequences": {"note": "Sequences of proteins named here, by UniProt entry; tags and fusion partners are left off.", "UniProt P03372, whole entry, looked up": "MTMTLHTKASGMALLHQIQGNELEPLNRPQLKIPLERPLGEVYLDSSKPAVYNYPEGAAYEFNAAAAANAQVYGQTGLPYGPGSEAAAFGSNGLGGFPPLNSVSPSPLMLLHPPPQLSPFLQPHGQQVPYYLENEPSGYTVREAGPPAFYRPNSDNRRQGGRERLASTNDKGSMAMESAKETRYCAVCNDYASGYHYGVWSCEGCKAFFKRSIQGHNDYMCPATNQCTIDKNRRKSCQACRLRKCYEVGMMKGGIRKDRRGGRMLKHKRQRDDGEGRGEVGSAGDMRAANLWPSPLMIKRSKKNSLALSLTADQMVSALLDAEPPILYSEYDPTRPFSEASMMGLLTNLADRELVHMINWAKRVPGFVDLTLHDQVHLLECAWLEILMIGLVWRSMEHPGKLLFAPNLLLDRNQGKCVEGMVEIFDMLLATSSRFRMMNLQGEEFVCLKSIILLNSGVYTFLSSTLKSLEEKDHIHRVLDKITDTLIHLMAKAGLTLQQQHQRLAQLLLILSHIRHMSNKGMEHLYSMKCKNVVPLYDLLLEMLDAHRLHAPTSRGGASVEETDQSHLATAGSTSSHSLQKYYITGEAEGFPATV", "UniProt P04637, whole entry, looked up": "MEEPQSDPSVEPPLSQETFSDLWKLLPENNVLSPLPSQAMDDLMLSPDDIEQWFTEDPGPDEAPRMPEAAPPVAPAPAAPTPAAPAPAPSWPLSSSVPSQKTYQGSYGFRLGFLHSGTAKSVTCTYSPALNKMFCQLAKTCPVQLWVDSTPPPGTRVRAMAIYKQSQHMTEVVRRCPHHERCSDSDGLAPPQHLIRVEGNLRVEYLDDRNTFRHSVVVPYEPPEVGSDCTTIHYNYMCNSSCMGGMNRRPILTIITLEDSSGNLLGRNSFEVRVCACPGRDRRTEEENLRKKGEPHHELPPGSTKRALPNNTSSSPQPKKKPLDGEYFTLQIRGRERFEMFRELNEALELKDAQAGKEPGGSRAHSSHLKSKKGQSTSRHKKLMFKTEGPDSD"},
  "source": "PubChem BioAssay (EPA / NIEHS)",
  "key": {"[1]": {"read-out": "Interleukin-1 alpha (IL1a), IL1A (gene 3552)", "assay": "BSK_KF3CT_IL1a: BioMAP Diversity Plus: KF3CT Assay for Interleukin-1 alpha (IL1a) Biomarker Activity (AID 2283070)", "details": "actives raise or lower the signal; primary human keratinocytes with fibroblasts", "in_short": "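IL-1a was detected by ELISA 24 h after chemical treatment of a co-culture of human skin keratinocytes and foreskin fibroblasts. Gain or loss of signal was fitted against the DMSO baseline.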"}, "[2]": {"read-out": "TIMP metallopeptidase inhibitor 1 (TIMP1), TIMP1 (gene 7076)", "assay": "BSK_hDFCGF_TIMP1: BioMAP Diversity Plus: hDFCGF Assay for TIMP metallopeptidase inhibitor 1 (TIMP1) Biomarker Activity (AID 2283062)", "details": "actives raise or lower the signal; primary human foreskin fibroblasts", "in_short": "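TIMP-1 measured by ELISA 24 h after chemical dosing of primary human skin fibroblasts, with gain or loss fitted relative to DMSO. Parallel SRB staining (560 nm) monitored overt cytotoxicity.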"}, "[3]": {"read-out": "Plasminogen activator inhibitor-1 (PAI1), SERPINE1 (gene 5054)", "assay": "BSK_hDFCGF_PAI1: BioMAP Diversity Plus: hDFCGF Assay for Plasminogen activator inhibitor-1 (PAI1) Biomarker Activity (AID 2283066)", "details": "actives raise or lower the signal; primary human foreskin fibroblasts", "in_short": "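ELISA readout of PAI-1 from primary human skin fibroblast cultures, 24 h after compound addition. Gain or loss of signal was fitted bidirectionally against DMSO baseline.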"}, "[4]": {"read-out": "Vascular cell adhesion molecule 1 (VCAM1), VCAM1 (gene 7412)", "assay": "BSK_LPS_VCAM1: BioMAP Diversity Plus: LPS Assay for Vascular cell adhesion molecule 1 (VCAM1) Biomarker Activity (AID 2283086)", "details": "actives raise or lower the signal; primary human HUVEC with PBMC", "in_short": "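ELISA read-out of VCAM-1 at 24 h post-dosing in an LPS-driven HUVEC/PBMC primary human co-culture; gain or loss of signal fitted bidirectionally against DMSO baseline. Cytotoxicity tracked in parallel cultures by SRB total-protein staining.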"}, "[5]": {"biological_target": "Estrogen receptor (Homo sapiens) (UniProt P03372)", "assay": "OT_ERa_GFPERaERE_0120: Odyssey Thera (OT) 2-hour HeLa Transcription Induction Assay for Estrogen Receptor (AID 2283382; active means hit-call score of the fitted dose curve at least 0.9, where 1 is the maximum)", "in_short": "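Fluorescence microscopy read-out: inducible fluorescent protein reporter in HeLa cells, imaged 2 h post-dose. Signal increase over DMSO negative control fitted as single primary endpoint via high content image analysis.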"}, "[6]": {"biological_target": "Cellular tumor antigen p53 (Homo sapiens) (UniProt P04637)", "assay": "TOX21_p53_BLA_p4_ratio: Tox21 HCT-116 p53 Agonism Beta-lactamase Assay, Ratio, Phase 4 (AID 2283601; active means hit-call score of the fitted dose curve at least 0.9, where 1 is the maximum)", "in_short": "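Signal is the blue/green (460nm/530nm) ratio of cleaved versus uncleaved CCF4-AM substrate, read after 2 h substrate loading. Cells were HCT116 carrying the p53-responsive beta-lactamase reporter, dosed 16 h at 37C, 5% CO2; CellTiter-Glo measured in parallel.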"}, "[7]": {"assay": "Tanguay_ZF_120hpf_ActivityScore_legacy: (Legacy) Oregon State University Tanguay Lab 120 Hour Post-fertilization zebrafish Assay Score for Activity (AID 2283742; active means hit-call score of the fitted dose curve at least 0.9, where 1 is the maximum;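 further: dechorionated Tropical 5D wild-type zebrafish embryos held singly per well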)", "in_short": "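Binary scoring of mortality and morphology by brightfield at 24 and 120 hpf, summarised into one activity score from 18 components relative to DMSO. Wild-type Tropical 5D zebrafish, chorion removed at 4 hpf, static exposure 6–120 hpf, 28 °C.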"}, "[8]": {"assay": "CCTE_Shafer_MEA_dev_inter_network_spike_interval_mean: CCTE's Neural Network Formation Assay for Mean Inter-network Spike Interval, Shafer Lab (AID 2284047)", "in_short": "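Primary rat cortical neurons on 16-electrode MEA wells, exposed from plating day 0 through DIV 12, compound renewed at DIV 5 and 9 media changes. Mean interval between network-spike peaks recorded DIV 5, 7, 9, 12; collapsed as trapezoidal AUC, fitted downward versus DMSO.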"}, "[9]": {"assay": "BSK_KF3CT_SRB: Viability Assessment in the BioMAP Diversity Plus: KF3CT Assay (AID 2283069);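 further: total protein by sulforhodamine B staining as a cytotoxicity measure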", "details": "primary human keratinocytes with fibroblasts", "in_short": "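Cytotoxicity was gauged by SRB staining (0.1% SRB, 10% TCA fixation, 560 nm) of parallel cultures at 24 h. The cells were primary human skin keratinocytes co-cultured with fibroblasts, and activity was fitted in both directions against DMSO.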"}, "[10]": {"read-out": "Vascular cell adhesion molecule 1 (VCAM1), VCAM1 (gene 7412)", "assay": "BSK_hDFCGF_VCAM1: BioMAP Diversity Plus: hDFCGF Assay for Vascular cell adhesion molecule 1 (VCAM1) Biomarker Activity (AID 2283065)", "details": "actives raise or lower the signal; primary human foreskin fibroblasts", "in_short": "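ELISA readout of VCAM-1 on human dermal fibroblast primary cultures, 24 h after chemical exposure. Gain or loss of signal fitted in both directions against DMSO baseline.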"}, "[11]": {"read-out": "Glutamate-cysteine ligase catalytic (GCLC), GCLC (gene 2729)", "assay": "LTEA_HepaRG_GCLC: Life Technologies and Expression Analysis (LTEA) Assay for Glutamate-cysteine ligase catalytic (GCLC) using HepaRG (AID 2283498)", "details": "actives raise or lower the signal; mRNA level, 48 h", "in_short": "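Expression by TaqMan qRT-PCR, normalized to three housekeeping genes (ACTB, GAPDH, POLR2A), with up- or down-regulation fitted against DMSO. HepaRG cells dosed in duplicate for 48 h with 8 half-log concentrations up to 100 uM, vehicle 0.5% DMSO.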"}, "[12]": {"assay": "CCTE_Simmons_MITO_inhib_resp_rate: CCTE's HepG2 Seahorse XF Respirometric Screening Assay at Inhibited Respiratory State [full ETC block], Simmons Lab (AID 2284006)", "details": "actives raise or lower the signal", "in_short": "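OCR read-out in the inhibited phase following rotenone/antimycin A, after compound and FCCP injections, in HepG2 cells. Seven concentrations (125 nM to 100 uM final), three biological replicates, 6-min cycles over 72 min; DMSO baseline.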"}},
  "note": "For some assays here: Most of the hits are listed elsewhere, so they are rarer here than in the full data. The entries are a selection whose mix differs from that of the whole data set. Inconclusive results are not listed. The source made the active and inactive calls. How the source made its calls, unless noted: active means hit-call score of the fitted dose curve at least 0.9, where 1 is the maximum; inactive means score below 0.9.",
  "data": [
    {"molecule": "Clc1ccccc1Cl", "values": [
      {"measurement": "outcome", "setting": "[1]", "value": "inactive"}
    ]},
    {"molecule": "CCOP(=O)(OCC)OC(=CCl)c1ccc(Cl)cc1Cl", "values": [
      {"measurement": "outcome", "setting": "[1]", "value": "inactive"}
    ]},
    {"molecule": "CC1(C)CON(Cc2ccccc2Cl)C1=O", "values": [
      {"measurement": "outcome", "setting": "[2]", "value": "inactive"}
    ]},
    {"molecule": "ClC1=C(Cl)[C@]2(Cl)[C@@H]3[C@H]4C[C@H]([C@@H]5O[C@H]45)[C@@H]3[C@@]1(Cl)C2(Cl)Cl", "values": [
      {"measurement": "outcome", "setting": "[3]", "value": "inactive"},
      {"measurement": "outcome", "setting": "[4]", "value": "inactive"},
      {"measurement": "outcome", "setting": "[5]", "value": "inactive"},
      {"measurement": "outcome", "setting": "[6]", "value": "inactive"},
      {"measurement": "AC50", "setting": "[7]", "value": "active: 12.5 µM"},
      {"measurement": "outcome", "setting": "[8]", "value": "inactive"}
    ]},
    {"molecule": "CC(C)Nc1ccc(Nc2ccccc2)cc1", "values": [
      {"measurement": "AC50", "setting": "[9]", "value": "active: 30.4 µM"}
    ]},
    {"molecule": "CCN(CC)C(=O)C(C)Oc1cccc2ccccc12", "note": "(centres undefined)", "values": [
      {"measurement": "outcome", "setting": "[10]", "value": "inactive"},
      {"measurement": "outcome", "setting": "[11]", "value": "inactive"},
      {"measurement": "AC50", "setting": "[12]", "value": "active: 81.2 µM"}
    ]},
    {"molecule": "CCOC(=O)/C=C(C)/C=C/C[C@@H](C)CCCC(C)C", "values": [
      {"measurement": "AC50", "setting": "[3]", "value": "active: 13.7 µM"}
    ]}
  ]
}
